# Inconclusive means that the source gave no clear call. Such entries were picked first, then a sample of the others. Where a call stands in place of a potency, no number is given. For part of these data: Where the call is inconclusive, the potency comes from a doubtful curve fit. Active and inactive are the calls of the source. Calls come from the whole dose curve.
# What was measured:
# [1] = p53 small molecule agonists, cell-based qHTS assay: qHTS cell viability counter screen (AID 1963581); note: nearly all actives have a fitted effect of over 45% in size; note: potency is the fitted concentration of half-maximal effect
# Procedure, shortened: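 Viability was counter-screened in parallel with the p53 agonist reporter by measuring intracellular ATP luminescence in the same HCT-116 p53RE-bla wells after 16 h compound treatment at 37 C.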
# [2] = target: Beta-2 adrenergic receptor (Homo sapiens) (UniProt P07550); test: Adrenergic beta2 receptor (ADRB2) small molecule agonists, cell-based qHTS assay (AID 1963593); conditions: CHO-ADRB2 cells, cAMP HTRF, 30 min; activation: at 92.4 µM (top of the series) unless noted; note: potency is the fitted concentration of half-maximal effect;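 for activation: CHO cells stably overexpressing human ADRB2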
# Procedure, shortened: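 CHO cells stably over-expressing ADRB2 were plated overnight at 37C, then dosed with compounds plus a stimulation mix containing 100uM IBMX and 25uM Ro-20-1724 for 0.5hr at room temperature. cAMP was measured by HTRF competition, 1hr.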
# [3] = target: Beta-2 adrenergic receptor (Homo sapiens) (UniProt P07550); test: Adrenergic beta2 receptor (ADRB2) small molecule antagonists, cell-based qHTS assay (AID 1963592); conditions: CHO-ADRB2 cells, isoproterenol-stimulated cAMP HTRF ratio, 0.5 h; activity change, negative = inhibition: at 92.4 µM (top of the series) unless noted; note: nearly all actives have a fitted effect of over 50% in size
# Procedure, shortened: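 Assay format: CHO-ADRB2 cells, 18-20hr seeding at 37C/5% CO2, then compound plus 1nM isoproterenol agonist mix for 0.5hr RT. Homogeneous time-resolved fluorescence cAMP detection after 1hr, expressed as 665/615 nm ratio.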
smiles,measurement,setting,value
CC(C)(O)c1ccccc1,Potency,[1],"inconclusive: 1.75 µM [rising, single point]"
same,activation,[2],inconclusive: 3.46%
C=COC(=O)C(C)(CC)CCC(C)C (configuration not stated),Potency,[1],"inconclusive: 18.2 µM [rising, single point]"
same,activation,[2],inconclusive: -6.55%
OC1CCC(C2CCCCC2)CC1 (configuration not stated),Potency,[1],inactive
same,"activity change, negative = inhibition",[3],inconclusive: -1.27%
same,Potency,[2],inactive
CCCCC(CC)COCCO (configuration not stated),Potency,[1],inactive
same,Potency,[2],inactive
CCOC(=O)CC(CC(=O)OCC)(OC(C)=O)C(=O)OCC,Potency,[1],"inconclusive: 0.913 µM [cytotoxic, single point]"
same,Potency,[2],"inconclusive: 0.486 µM [inhibitor, full curve, poor fit]"
CN(C)C(=O)COC(=O)Cc1ccc(OC(=O)c2ccc(N=C(N)N)cc2)cc1,Potency,[1],inactive
same,Potency,[2],inactive
CCCCCc1ccco1,Potency,[1],inactive
same,Potency,[2],inactive
[O]=[Mo](=[O])=[O],"activity change, negative = cytotoxicity",[1],inactive: 14.2% [at 13.5 µM]
same,Potency,[2],"inconclusive: 1.46 µM [inhibitor, single point]"
CC1C(C)(C)C2=C(C(=O)CCC2)C1(C)C (configuration not stated),Potency,[1],inactive
same,Potency,[2],inactive
CCNS(=O)(=O)c1ccc(C)cc1,Potency,[1],"inconclusive: 1.67 µM [cytotoxic, full curve]"
same,Potency,[2],inactive
CC(C)(O)CCC(C)(C)O,Potency,[1],"inconclusive: 46.4 µM [cytotoxic, single point]"
same,Potency,[2],"inconclusive: 69.6 µM [activator, partial curve, poor fit]"
CCSC(=O)N(CC(C)C)CC(C)C,Potency,[1],inactive
same,Potency,[2],inactive
O=C(O)c1ccc(OCCCOc2ccc(C(=O)O)cc2)cc1,Potency,[1],inactive
same,Potency,[2],inactive

# A portion taken from the entries so far:
smiles,measurement,setting,value
OC1CCC(C2CCCCC2)CC1 (configuration not stated),Potency,[2],inactive
CCCCC(CC)COCCO (configuration not stated),Potency,[1],inactive

# — PubChem BioAssay (Tox21)
